Results taken from the supplement of paper PMC10849652.
Some of the results follow.

The chains behind the UniProt entries cited, without tags or fusion partners. Where a name states a change or a piece, a line headed by the entry shows the natural chain unless it says otherwise.
UniProt Q96MP8: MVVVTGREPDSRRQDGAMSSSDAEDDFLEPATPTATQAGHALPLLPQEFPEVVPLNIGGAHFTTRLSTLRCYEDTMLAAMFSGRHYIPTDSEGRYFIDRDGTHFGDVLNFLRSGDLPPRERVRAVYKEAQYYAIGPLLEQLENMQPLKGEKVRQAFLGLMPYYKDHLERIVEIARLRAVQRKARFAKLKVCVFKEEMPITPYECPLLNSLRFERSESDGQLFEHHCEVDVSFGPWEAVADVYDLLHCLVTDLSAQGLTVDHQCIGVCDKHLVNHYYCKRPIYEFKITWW
UniProt Q7LBC6: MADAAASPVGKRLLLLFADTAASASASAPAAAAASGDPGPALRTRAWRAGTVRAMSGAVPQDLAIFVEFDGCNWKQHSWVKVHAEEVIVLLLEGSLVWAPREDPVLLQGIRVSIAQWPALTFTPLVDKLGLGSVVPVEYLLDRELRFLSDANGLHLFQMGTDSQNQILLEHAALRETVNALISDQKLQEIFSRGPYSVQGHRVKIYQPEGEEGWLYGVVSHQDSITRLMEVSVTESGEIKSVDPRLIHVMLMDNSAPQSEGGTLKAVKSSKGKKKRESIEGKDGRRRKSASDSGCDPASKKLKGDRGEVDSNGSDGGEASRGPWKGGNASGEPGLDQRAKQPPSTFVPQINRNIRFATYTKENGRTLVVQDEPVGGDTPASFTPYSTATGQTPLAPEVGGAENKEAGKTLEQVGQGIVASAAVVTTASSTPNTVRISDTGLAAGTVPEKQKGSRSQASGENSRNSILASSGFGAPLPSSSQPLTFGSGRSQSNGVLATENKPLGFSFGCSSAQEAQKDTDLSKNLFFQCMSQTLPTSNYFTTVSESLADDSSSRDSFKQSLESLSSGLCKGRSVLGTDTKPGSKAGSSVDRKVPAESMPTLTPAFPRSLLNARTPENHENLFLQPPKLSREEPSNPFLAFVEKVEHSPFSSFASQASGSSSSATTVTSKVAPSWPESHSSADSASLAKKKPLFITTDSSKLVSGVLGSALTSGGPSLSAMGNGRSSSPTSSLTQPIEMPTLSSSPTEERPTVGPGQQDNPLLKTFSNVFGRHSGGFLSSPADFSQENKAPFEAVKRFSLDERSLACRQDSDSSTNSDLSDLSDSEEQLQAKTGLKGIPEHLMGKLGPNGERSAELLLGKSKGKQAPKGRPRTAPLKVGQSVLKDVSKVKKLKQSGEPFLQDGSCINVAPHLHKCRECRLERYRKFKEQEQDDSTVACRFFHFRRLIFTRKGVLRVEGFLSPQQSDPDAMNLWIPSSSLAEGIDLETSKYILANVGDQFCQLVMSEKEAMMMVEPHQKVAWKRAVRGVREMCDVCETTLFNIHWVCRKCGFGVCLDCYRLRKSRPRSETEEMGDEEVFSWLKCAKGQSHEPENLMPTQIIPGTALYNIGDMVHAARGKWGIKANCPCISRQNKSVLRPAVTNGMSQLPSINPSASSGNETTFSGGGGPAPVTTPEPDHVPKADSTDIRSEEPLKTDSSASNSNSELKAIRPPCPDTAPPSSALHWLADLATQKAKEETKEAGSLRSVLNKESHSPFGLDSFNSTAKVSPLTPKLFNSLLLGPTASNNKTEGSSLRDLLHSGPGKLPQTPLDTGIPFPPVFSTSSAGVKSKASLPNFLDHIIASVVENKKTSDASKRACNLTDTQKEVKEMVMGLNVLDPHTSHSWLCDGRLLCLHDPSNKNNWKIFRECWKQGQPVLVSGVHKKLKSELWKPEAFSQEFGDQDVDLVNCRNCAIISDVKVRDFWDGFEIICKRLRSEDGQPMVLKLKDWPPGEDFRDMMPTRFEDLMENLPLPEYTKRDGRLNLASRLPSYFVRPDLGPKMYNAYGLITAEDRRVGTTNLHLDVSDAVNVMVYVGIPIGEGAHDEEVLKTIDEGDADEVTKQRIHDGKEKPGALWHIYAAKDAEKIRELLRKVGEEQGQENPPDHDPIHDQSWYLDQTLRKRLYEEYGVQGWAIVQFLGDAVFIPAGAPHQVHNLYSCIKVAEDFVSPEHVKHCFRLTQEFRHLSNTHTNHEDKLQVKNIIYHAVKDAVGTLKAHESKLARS
UniProt P05412, whole entry, looked up: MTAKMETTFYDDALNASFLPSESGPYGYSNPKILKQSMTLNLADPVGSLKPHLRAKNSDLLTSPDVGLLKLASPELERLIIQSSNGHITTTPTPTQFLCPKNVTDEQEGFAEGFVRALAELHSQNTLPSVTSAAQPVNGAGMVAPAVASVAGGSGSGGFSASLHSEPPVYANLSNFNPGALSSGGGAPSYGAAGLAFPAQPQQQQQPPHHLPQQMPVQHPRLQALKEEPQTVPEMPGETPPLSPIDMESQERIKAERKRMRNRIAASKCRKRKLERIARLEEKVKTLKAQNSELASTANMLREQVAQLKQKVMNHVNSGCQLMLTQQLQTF
UniProt Q9NQX7: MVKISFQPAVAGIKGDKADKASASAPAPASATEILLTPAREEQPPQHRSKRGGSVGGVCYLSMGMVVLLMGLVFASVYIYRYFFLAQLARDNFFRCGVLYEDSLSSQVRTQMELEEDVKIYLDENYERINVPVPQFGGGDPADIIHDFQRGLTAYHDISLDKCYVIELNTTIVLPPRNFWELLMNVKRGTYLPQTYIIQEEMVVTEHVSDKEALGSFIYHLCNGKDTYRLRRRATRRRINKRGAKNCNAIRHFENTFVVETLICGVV
UniProt Q8N5M9: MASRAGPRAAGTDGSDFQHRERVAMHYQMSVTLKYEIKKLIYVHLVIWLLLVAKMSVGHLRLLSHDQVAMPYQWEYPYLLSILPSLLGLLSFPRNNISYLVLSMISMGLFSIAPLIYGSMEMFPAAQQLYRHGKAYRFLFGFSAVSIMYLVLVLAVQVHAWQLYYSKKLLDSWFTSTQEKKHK
UniProt Q8WVZ9: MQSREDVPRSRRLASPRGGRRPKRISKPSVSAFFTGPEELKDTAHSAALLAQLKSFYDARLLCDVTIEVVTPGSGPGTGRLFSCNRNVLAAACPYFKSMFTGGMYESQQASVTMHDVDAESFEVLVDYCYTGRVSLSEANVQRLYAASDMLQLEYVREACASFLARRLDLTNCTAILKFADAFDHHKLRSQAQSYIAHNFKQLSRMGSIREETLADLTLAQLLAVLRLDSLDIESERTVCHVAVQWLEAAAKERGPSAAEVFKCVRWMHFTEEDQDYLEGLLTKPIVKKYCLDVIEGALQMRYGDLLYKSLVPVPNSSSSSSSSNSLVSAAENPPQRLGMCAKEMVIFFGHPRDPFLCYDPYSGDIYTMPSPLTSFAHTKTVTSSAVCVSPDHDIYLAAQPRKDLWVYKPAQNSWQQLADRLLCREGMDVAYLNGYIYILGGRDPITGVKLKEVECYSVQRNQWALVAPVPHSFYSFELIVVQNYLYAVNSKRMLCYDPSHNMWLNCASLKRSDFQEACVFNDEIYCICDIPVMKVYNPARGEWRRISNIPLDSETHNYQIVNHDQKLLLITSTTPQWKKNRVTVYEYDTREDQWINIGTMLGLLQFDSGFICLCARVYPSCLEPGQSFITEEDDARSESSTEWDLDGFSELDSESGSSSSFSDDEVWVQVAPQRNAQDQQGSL
UniProt Q8NAX2: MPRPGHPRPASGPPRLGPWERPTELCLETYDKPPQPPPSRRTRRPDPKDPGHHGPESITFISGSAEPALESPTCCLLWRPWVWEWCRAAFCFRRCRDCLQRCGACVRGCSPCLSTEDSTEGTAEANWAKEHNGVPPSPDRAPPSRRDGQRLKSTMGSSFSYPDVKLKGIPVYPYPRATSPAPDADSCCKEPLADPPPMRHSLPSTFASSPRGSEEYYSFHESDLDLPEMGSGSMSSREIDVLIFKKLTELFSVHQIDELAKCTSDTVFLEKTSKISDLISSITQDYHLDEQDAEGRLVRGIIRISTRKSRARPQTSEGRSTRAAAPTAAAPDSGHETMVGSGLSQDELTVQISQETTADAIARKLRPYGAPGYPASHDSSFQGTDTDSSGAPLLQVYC
UniProt P24390: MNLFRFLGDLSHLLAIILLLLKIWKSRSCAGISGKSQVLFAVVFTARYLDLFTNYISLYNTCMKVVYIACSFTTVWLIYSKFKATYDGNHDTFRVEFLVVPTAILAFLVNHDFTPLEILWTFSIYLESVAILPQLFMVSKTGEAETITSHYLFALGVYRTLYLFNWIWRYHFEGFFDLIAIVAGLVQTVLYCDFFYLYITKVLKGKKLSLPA
UniProt O00180: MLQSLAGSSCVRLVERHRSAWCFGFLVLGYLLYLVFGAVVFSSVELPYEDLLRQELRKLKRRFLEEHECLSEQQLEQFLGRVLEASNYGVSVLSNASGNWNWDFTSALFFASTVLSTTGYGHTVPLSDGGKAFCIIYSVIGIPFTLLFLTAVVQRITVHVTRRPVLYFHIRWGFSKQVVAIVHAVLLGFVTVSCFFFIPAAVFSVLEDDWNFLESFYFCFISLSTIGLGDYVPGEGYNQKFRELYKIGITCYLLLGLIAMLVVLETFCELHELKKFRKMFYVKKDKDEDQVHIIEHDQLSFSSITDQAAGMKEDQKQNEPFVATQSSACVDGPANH
UniProt P28290: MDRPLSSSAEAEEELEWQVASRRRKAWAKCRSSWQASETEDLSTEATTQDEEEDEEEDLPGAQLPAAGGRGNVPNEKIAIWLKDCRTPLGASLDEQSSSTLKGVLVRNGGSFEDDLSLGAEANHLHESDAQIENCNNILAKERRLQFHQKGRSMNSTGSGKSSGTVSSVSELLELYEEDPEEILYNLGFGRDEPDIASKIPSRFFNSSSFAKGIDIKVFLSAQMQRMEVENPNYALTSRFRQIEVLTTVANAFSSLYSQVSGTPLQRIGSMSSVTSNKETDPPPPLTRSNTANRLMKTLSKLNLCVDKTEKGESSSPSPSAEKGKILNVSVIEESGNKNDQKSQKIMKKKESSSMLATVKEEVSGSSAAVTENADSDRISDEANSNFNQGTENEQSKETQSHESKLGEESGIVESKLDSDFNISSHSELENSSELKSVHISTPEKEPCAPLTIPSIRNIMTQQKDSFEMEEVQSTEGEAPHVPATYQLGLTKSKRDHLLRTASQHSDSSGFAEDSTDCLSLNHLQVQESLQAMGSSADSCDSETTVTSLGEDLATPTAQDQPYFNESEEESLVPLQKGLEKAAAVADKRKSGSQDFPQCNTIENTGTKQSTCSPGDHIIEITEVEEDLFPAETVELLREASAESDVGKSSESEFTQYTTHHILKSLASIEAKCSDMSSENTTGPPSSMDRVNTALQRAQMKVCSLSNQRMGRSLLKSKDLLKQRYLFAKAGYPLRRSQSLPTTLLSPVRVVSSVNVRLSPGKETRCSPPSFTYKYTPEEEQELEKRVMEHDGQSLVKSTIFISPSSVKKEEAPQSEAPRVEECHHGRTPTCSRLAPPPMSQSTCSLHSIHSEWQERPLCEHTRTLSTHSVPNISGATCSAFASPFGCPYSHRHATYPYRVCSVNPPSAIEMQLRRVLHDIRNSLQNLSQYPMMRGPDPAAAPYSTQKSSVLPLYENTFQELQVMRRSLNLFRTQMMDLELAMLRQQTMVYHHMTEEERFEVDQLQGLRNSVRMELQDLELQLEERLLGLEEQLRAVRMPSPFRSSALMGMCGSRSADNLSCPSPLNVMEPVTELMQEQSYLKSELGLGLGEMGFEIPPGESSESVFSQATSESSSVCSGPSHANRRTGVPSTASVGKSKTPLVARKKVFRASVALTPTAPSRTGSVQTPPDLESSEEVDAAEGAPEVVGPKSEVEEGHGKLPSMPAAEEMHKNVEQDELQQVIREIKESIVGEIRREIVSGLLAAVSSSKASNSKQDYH
UniProt P0C870: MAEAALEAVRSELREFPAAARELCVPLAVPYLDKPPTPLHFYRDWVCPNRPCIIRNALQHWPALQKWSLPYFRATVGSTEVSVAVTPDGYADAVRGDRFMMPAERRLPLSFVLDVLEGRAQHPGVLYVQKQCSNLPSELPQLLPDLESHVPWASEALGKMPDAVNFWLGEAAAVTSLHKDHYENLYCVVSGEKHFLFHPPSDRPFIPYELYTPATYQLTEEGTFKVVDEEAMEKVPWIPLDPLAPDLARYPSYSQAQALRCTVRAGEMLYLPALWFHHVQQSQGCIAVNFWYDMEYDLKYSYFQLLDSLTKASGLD
UniProt O43736: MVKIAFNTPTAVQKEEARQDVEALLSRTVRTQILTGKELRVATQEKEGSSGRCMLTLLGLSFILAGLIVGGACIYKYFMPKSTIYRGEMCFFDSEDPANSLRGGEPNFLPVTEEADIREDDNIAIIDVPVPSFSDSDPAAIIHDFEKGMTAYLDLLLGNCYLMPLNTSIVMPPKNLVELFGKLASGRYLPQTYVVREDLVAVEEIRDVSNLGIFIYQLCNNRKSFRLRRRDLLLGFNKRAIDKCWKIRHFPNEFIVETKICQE
UniProt O14713: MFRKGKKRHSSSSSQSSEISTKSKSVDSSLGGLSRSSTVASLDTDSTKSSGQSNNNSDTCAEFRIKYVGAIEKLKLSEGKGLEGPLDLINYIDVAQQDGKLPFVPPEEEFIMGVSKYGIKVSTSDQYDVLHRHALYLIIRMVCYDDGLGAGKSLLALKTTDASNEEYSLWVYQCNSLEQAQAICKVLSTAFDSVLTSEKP

Compound: Cn1cc(CNCC2CCN(c3ncc(C(=O)NO)cn3)CC2)c2ccccc21 [quisinostat]
Experiment: log2 fold change, soluble protein after heating vs DMSO (PISA); higher = thermal stabilisation; K562 lysate, 10 uM; active = over 0.2 and 3.5 SD of the protein, either way, in both replicates (recomputed)
In short: (§1)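 Values give the log-two fold change in thermal stability against solvent controls, from duplicates. Crude K562 extract at 1 mg/mL protein, made by dounce homogenisation in PBS pH 7.4 with 1 mM MgCl2, was treated with 10 μM compound for 30 min. After 3 min heating across 48°C-58°C, aliquots were pooled, adjusted to 0.5% NP-40 at 4°C and centrifuged at 21,000xg for 90 min. The supernatant was measured by TMTpro 16plex LC-MS/MS with channel sums equalised.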

Target | log2 fold change
KCTD7 (UniProt Q96MP8) | inactive: -0.02
JAG2 (UniProt Q9Y219) | inactive: 0.183
KCMF1 (UniProt Q9P0J7) | inactive: -0.015
KAT2A (UniProt Q92830) | inactive: -0.227
JTB (UniProt O76095) | inactive: -0.114
KDM3B (UniProt Q7LBC6) | inactive: -0.021
KDM1B (UniProt Q8NB78) | inactive: -0.041
JUN (UniProt P05412) | inactive: 0.004
ITM2C (UniProt Q9NQX7) | inactive: 0.287
ITGA2B (UniProt P08514) | inactive: -0.144
IRS2 (UniProt Q9Y4H2) | inactive: -0.15
KAT6B (UniProt Q8WYB5) | inactive: -0.244
IQGAP3 (UniProt Q86VI3) | inactive: -0.055
IST1 isoform 2 (UniProt P53990) | inactive: -0.065
ITPR1 (UniProt Q14643) | inactive: 0.052
ITPR3 (UniProt Q14573) | inactive: -0.122
JAGN1 (UniProt Q8N5M9) | inactive: 0.055
IQGAP1 (UniProt P46940) | inactive: -0.002
JAK3 (UniProt P52333) | inactive: 0.131
IP6K1 (UniProt Q92551) | inactive: -0.071
KBTBD7 (UniProt Q8WVZ9) | inactive: -0.077
KCNK5 (UniProt O95279) | inactive: 0.047
KDF1 (UniProt Q8NAX2) | inactive: 0.008
ITIH2 (UniProt P19823) | inactive: -0.012
KCNN4 (UniProt O15554) | inactive: 0.047
KATNBL1 (UniProt Q9H079) | inactive: 0.035
JMJD4 (UniProt Q9H9V9) | inactive: 0.028
KDELR3 (UniProt O43731) | inactive: 0.176
KDELR1 (UniProt P24390) | inactive: -0.094

Compound: Cn1cncc1[C@@](N)(c1ccc(Cl)cc1)c1ccc2c(c1)c(-c1cccc(Cl)c1)cc(=O)n2C [tipifarnib]
Experiment: as above
In short: as §1

Target | log2 fold change
KCNK1 (UniProt O00180) | inactive: 0.028
KCMF1 (UniProt Q9P0J7) | inactive: 0.004
ITGAE (UniProt P38570) | inactive: 0.073
KAT2A (UniProt Q92830) | inactive: -0.037
JTB (UniProt O76095) | inactive: -0.117
KDM3B (UniProt Q7LBC6) | inactive: -0.041
KDM1B (UniProt Q8NB78) | inactive: 0.105
ITGA2B (UniProt P08514) | inactive: -0.105
IRS2 (UniProt Q9Y4H2) | inactive: -0.071
IPO5 (UniProt H0Y3V4) | inactive: -0.077
IQGAP3 (UniProt Q86VI3) | inactive: -0.048
IST1 isoform 2 (UniProt P53990) | inactive: -0.266
JAGN1 (UniProt Q8N5M9) | inactive: -0.002
IQGAP1 (UniProt P46940) | inactive: 0.004
IP6K1 (UniProt Q92551) | inactive: -0.04
ITPRID2 (UniProt P28290) | inactive: -0.154
JMJD7 (UniProt P0C870) | inactive: -0.072
KCNK5 (UniProt O95279) | inactive: 0.214
IQCD (UniProt Q96DY2) | inactive: 0.069
KDF1 (UniProt Q8NAX2) | inactive: -0.037
ITIH2 (UniProt P19823) | inactive: 0.014
KCNN4 (UniProt O15554) | inactive: 0.197
KATNBL1 (UniProt Q9H079) | inactive: 0.198
JMJD4 (UniProt Q9H9V9) | inactive: 0.016
KDELR3 (UniProt O43731) | inactive: -0.104
ITM2A (UniProt O43736) | inactive: 0.065
ITGB1BP1 (UniProt O14713) | inactive: 0.038
